# Data taken from paper PMC7819943, “Rice protein-binding microarrays: a tool to detect cis-acting elements near promoter regions in rice”.
# The list shows a part of the results.
# Molecular target: T1, OsSMF1 (Oryza sativa, UniProt Q6ZLB0 1-436)
# T1 sequence: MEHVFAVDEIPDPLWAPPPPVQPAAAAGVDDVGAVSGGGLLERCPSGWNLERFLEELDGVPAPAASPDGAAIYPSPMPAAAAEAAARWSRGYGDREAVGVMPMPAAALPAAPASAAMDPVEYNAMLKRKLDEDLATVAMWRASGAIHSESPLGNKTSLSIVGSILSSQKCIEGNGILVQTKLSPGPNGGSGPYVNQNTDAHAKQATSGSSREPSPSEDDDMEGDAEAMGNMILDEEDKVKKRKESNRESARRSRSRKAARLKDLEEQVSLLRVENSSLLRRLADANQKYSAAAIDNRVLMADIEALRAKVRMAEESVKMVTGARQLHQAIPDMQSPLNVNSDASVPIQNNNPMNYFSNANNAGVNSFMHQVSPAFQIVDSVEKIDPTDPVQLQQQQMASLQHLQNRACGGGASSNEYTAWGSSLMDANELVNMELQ
# Experiment: protein-binding microarray (RPBM); PBS, 2% BSA, 51.3 ng/ul salmon testes DNA, 50 uM zinc acetate, 200 nM TF, 25 C, 1 h; high values mean tight binding
# Conditions: protein: recombinant; tags: N-terminal polyhistidine and DsRed monomer fusion (pET32a); chain copies: 2; label: CyDye5-dUTP incorporated in the synthesized complementary strand; 3' TTTTT single-stranded linker to array surface; dsDNA, one strand shown
# How it was run: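 Binding signal is defined as the fluorescence intensity of each feature in arbitrary units, read on an Axon 4000B scanner. Transcription factors with N-terminal polyhistidine and DsRed fusions came from E. coli BL21-CodonPlus and were purified on Ni–NTA. They were incubated at 200 nM for 1 h at 25 °C on a custom Agilent array that had been made double-stranded with Cy5-dUTP, with 50 µM zinc acetate present, and the array was washed.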
row,Sequence,binding signal
1,ACACCGAGAGCAGAGAGAAAATTCACCGGCACGCCGGAGACGGAGTCACCTAGTGCAG,33400 fluorescence intensity (a.u.)
2,AAGGAAAGCAAATTTGTGACATTGAGCTAGGTGGTTCAGACGGAGTCACCTAGTGCAG,3240 fluorescence intensity (a.u.)
3,GCATCCCTATCGCAGAAGTCAAACCGGGCGGGGCCCATTCCGGAGTCACCTAGTGCAG,29000 fluorescence intensity (a.u.)
4,GGGGTCGATGTGCCCCAAGCATAGCCATTAGGGGCTGCACCGGAGTCACCTAGTGCAG,3150 fluorescence intensity (a.u.)
5,CACTCTGCAGCTCTGCTCGTTTTGCACACGGGTGACTCGTCGGAGTCACCTAGTGCAG,3280 fluorescence intensity (a.u.)
6,ATATAAAATTATAACCATATAAAACTAAATTGAAATATCACGGAGTCACCTAGTGCAG,25800 fluorescence intensity (a.u.)
7,CCTCCTGTTGCAGTTGCAGAGTACAGCAGCAGCATCAGCACGGAGTCACCTAGTGCAG,3560 fluorescence intensity (a.u.)
8,TGATGATTGTTAGTGGATGATGATGTGGCATATTTGCATGCGGAGTCACCTAGTGCAG,24600 fluorescence intensity (a.u.)
9,CAGATGGGGAACGTGGAAATGCTGCTGGGGATGGATGGCTCGGAGTCACCTAGTGCAG,3790 fluorescence intensity (a.u.)
10,AATTGGTTTCAGGTCGCGTTGGCATTGAGCATGCGTAAGCCGGAGTCACCTAGTGCAG,3260 fluorescence intensity (a.u.)
11,CTTTTGGGCCCACGTGGGCCATTTTGCCTCCGTTTTGGGCCGGAGTCACCTAGTGCAG,6620 fluorescence intensity (a.u.)
12,TACCGCCTCAACGTCGGCGGCGCCTACATCCCGCCGTCCACGGAGTCACCTAGTGCAG,3710 fluorescence intensity (a.u.)
13,TTCCGCATCTTGAGCTGAGCAGAGCACAGCTTGTACCTGCCGGAGTCACCTAGTGCAG,3300 fluorescence intensity (a.u.)
14,TATTTTAGGACGGGGAGTAATATACAGTCACGCTTAACTGCGGAGTCACCTAGTGCAG,6870 fluorescence intensity (a.u.)
15,GACTGACACATCAGTCAAAACCACCATCGAAATCGCTGAGCGGAGTCACCTAGTGCAG,5300 fluorescence intensity (a.u.)
16,CACAAACCGTCCAAACCGCTGACTCCTTGTTGCCTGCTCGCGGAGTCACCTAGTGCAG,4620 fluorescence intensity (a.u.)
17,GGAAGTTCTGAGTCAGGCCCCATCATCTCATTGCTGTCTACGGAGTCACCTAGTGCAG,5890 fluorescence intensity (a.u.)
18,GTAAGCAGTGACAGAAGCCGTCGTCCCTCCACGCGTCGCGCGGAGTCACCTAGTGCAG,3780 fluorescence intensity (a.u.)
19,CAAAGTCGCAAGTCCGCAACGCGACTGTGCACACGAGGCCCGGAGTCACCTAGTGCAG,3200 fluorescence intensity (a.u.)
20,CTAATAGTTCCATCTACGTACCCAACCTTAATAACGGGCCCGGAGTCACCTAGTGCAG,36200 fluorescence intensity (a.u.)
21,CGTCAGATCTCTCCATTTCTCTCCACGTGGCGTCGAGAGGCGGAGTCACCTAGTGCAG,10400 fluorescence intensity (a.u.)

row,Sequence,binding signal
1,GTGCGCGCCACCGCGGACACGTCCCGCCCCGCCGCGCACTCGGAGTCACCTAGTGCAG,3660 fluorescence intensity (a.u.)
2,CAAATCCGGTGGTCCGCCGCGTCGTCCTCCAGTCCCAGTCCGGAGTCACCTAGTGCAG,4130 fluorescence intensity (a.u.)
3,GATGCATATGAGCCTGTGATATAGTTACATTGACATGTGCCGGAGTCACCTAGTGCAG,27800 fluorescence intensity (a.u.)
4,CCGGGCAGTGAAGCATGCAGTGTGTGACGCGGGACTCCGGCGGAGTCACCTAGTGCAG,3370 fluorescence intensity (a.u.)
5,CTCTCTCCTCGTCTTCCTCGCGCTGACTCTTCTCCTCCTCCGGAGTCACCTAGTGCAG,3180 fluorescence intensity (a.u.)
6,GATGATGATGAGGAGGATGACCAGGATGGTGGAGACTGGGCGGAGTCACCTAGTGCAG,3250 fluorescence intensity (a.u.)
7,CTTATATAATATAAAATGGAAGAAGTATTTTAATACCTTTCGGAGTCACCTAGTGCAG,28000 fluorescence intensity (a.u.)
8,CTGTTGCGTGCTACCAGTTCAGGATCGTCGACACGTGGAGCGGAGTCACCTAGTGCAG,10500 fluorescence intensity (a.u.)
9,TAGTAGAGTATGTGTACAGAGCATGCTATTATATGCACTGCGGAGTCACCTAGTGCAG,29700 fluorescence intensity (a.u.)
10,TTAAAAGATTCATCTCGCAATTTACACGTAATCTGTGTAACGGAGTCACCTAGTGCAG,6860 fluorescence intensity (a.u.)
11,TCCTCTTCTGTATTTCTGGTGCGAGTTCTATCTCGCACTACGGAGTCACCTAGTGCAG,3560 fluorescence intensity (a.u.)
12,ACCAAGCCCTAGTCCCCGCCACGCCACCGTCCGCCGGCCGCGGAGTCACCTAGTGCAG,8250 fluorescence intensity (a.u.)
13,GTGAACATCAGCATGCTCATCATCGGCCGCATCCTCCTCGCGGAGTCACCTAGTGCAG,3180 fluorescence intensity (a.u.)
14,GTGGTAGTGGTGGCTCAATGACGAGGAGGGGCGGCGAGAGCGGAGTCACCTAGTGCAG,4660 fluorescence intensity (a.u.)
15,CCAACAGTGCTGTTGTCGCCACGCTCTTTGTGTTGCTGCCCGGAGTCACCTAGTGCAG,3480 fluorescence intensity (a.u.)
16,GCGCGCGCGCGCGGGCATAGGCGACGCCGCGACGGTGCGGCGGAGTCACCTAGTGCAG,3890 fluorescence intensity (a.u.)
17,CTAATAGCAAATAAGTTTGGTTCTAGCGGTAAAATGGTCACGGAGTCACCTAGTGCAG,3290 fluorescence intensity (a.u.)
18,TCCGGTTGTTTGCCGTGGCACTTCCTTTCTCCCTATTGGCCGGAGTCACCTAGTGCAG,5380 fluorescence intensity (a.u.)
19,CGTCGGCGGGGCCGATGGAGCTGGTGGCGGCGCTGCTGCGCGGAGTCACCTAGTGCAG,23100 fluorescence intensity (a.u.)
20,GTGTGAAAAGATGCTGGCCCAATTAATTTGCGCGCGTCATCGGAGTCACCTAGTGCAG,48700 fluorescence intensity (a.u.)
21,CAAGTACCCAACCCGCGTCGTCATCGTCGTCTTCCTACTTCGGAGTCACCTAGTGCAG,5510 fluorescence intensity (a.u.)

# Exported bar-delimited: part of the list above
row | Sequence | binding signal
1 | GTGCGCGCCACCGCGGACACGTCCCGCCCCGCCGCGCACTCGGAGTCACCTAGTGCAG | 3660 fluorescence intensity (a.u.)
12 | ACCAAGCCCTAGTCCCCGCCACGCCACCGTCCGCCGGCCGCGGAGTCACCTAGTGCAG | 8250 fluorescence intensity (a.u.)
